Reference: EP0959065B1, “Pyrethroid compound and composition for controlling pest containing the same” (priority 1998, dated 1999)
The name of at least one read-out is uncertain.

Tested on: female adult houseflies
Experiment: Insecticidal activity against housefly, topical application of acetone dilutions on the nota
Assay type: in vivo
Settings: 0.5 µl acetone dilution per insect on the nota, mortality after 24 hours
Protocol: The present compound was diluted with acetone to concentrations of 100, 50, 25, 12.5 and 6.25 ppm. Each of reference compounds A and B was also diluted with acetone to concentrations of 400, 200, 100, 50 and 25 ppm. Each of the dilutions thus prepared was applied on the nota of female adult houseflies in a volume of 0.5 µl per insect. The insects were given water and diet. After 24 hours, the dead and alive were counted for mortality. From the mortality, LD50 (mg/kg) value was determined.

Substance: mixture of 50% by weight of 4-methyl-2,3,5,6-tetrafluorobenzyl (1RS)-cis-3-(2,2-dichlorovinyl)-2,2-dimethylcyclopropanecarboxylate and 50% by weight of 4-methyl-2,3,5,6-tetrafluorobenzyl (1RS)-trans-3-(2,2-dichlorovinyl)-2,2-dimethylcyclopropanecarboxylate [Reference compound B]
- Insecticidal activity against housefly (LD50): 2.9 mg/kg
